Test results reported in the supplement of paper PMC8551327.
Counter-ions that a name gives are not always drawn. The list shows a part of the results. No stated cut-off is given here; in the data, active = 1.25 or more and inactive = the rest. Most values come without repeats; read them as rough.

What follows are compounds tested on Kcc2-LUC knock-in mouse primary cortical neurons (Kcc2 promoter reporter) (assay: Kcc2 promoter-driven luciferase activity relative to vehicle control (fold of vehicle (ratio)); higher = stronger Kcc2 promoter activation (Kcc2 expression enhancer)). Conditions: 100 nM; 48 h.

Compound	Kcc2 promoter-driven luciferase activity
COC(=O)C1C(O)C(C)C(O)C(C)/C=C\C=C(C)C(=O)Nc2c(C)c(OC(C)=O)c3c(c2O)C(=O)C(C)=C2OCOC(=C23)C(C)=CC(C)(O)C(O)C(C)C1O (centres undefined)	inactive: 0.99
NC(=O)OCc1c(O)c2c(c(O)c1COC(N)=O)C(=O)C=CC2=O	inactive: 1
Cc1cc[c]([Sb]2[O]C(CO)C(C(O)C(O)C(=O)O)[O]2)cc1.O.O (centres undefined)	inactive: 0.52
CCCCC[C@@H](O)[C@H]1C(=O)O[C@H](C)[C@@H](O)/C=C/C=C/C=C/C=C/C=C(\C)[C@@H](O)[C@H](O)[C@H](O)C[C@H](O)C[C@H](O)C[C@H](O)C[C@H](O)C[C@@H]1O [Lagosin]	inactive: 0.91
OC1CC2CCC(C1)N2 (centres undefined) [8-Azabicyclo(3.2.1)octan-3-ol]	active: 1.41
Cc1cc2c(C(C)C)c(O)c(O)c(C=O)c2c(O)c1-c1c(C)cc2c(C(C)C)c(O)c(O)c(C=O)c2c1O [Gossypol]	inactive: 0.99
COc1ccc(NC2=NCCO2)c2c1CCCC2	inactive: 0.62
COc1c2c(c(CC=C(C)C)c3oc(=O)c(-c4ccc(O)cc4)c(O)c13)OC(C)(C)C=C2 [Lonchocarpic Acid]	inactive: 1.25
CC[C@@]1(O)C[C@H](OC2CC(N(C)C)C(O)C(C)O2)c2c(O)c3c(c(O)c2[C@H]1OC1CC(N(C)C)C(O)C(C)O1)C(=O)c1cccc(O)c1C3=O (some centres undefined)	inactive: 1.12
C[C@@H]1CCOC(=O)/C=C/C=C\C(=O)O[C@@H]2C[C@H]3O[C@@H]4[C@@H]5O[C@]5(C)[C@H](O)C[C@]4(COC(=O)[C@H]1O)[C@]2(C)[C@@]31CO1	inactive: 0.99
COc1cc2c(c3oc4cccc(O)c4c(=O)c13)[C@@H]1C=CO[C@@H]1O2 [Sterigmatocystin]	inactive: 1.02
COc1cc2c(cc1O)N=CC1CCC(O)N1C2=O (centres undefined) [Neothramycin A and neothramycin B]	inactive: 0.86
COc1ccc(C(=O)O[C@H]2CC[C@@]3(C)[C@@H]4CC[C@H]5[C@]6(O)C[C@H](O)[C@@]7(O)[C@@H](CN8C[C@@H](C)CC[C@H]8[C@@]7(C)O)[C@]6(O)C[C@@]53O[C@]24O)cc1OC [Veratridine]	active: 1.39
CCC[CH2][Pb]([Cl])([CH2]CCC)[CH2]CCC [Tributyl(chloro)plumbane]	inactive: 0.45
CO[C@@H](/C(C)=C/C=C/C(C)=C/c1coc(C)n1)[C@@H](C)[C@@H]1C[C@H](O)[C@@]2(C)O[C@@H]2/C=C/[C@@H](C)[C@H]2C[C@H](CC(=O)O2)C[C@@H]2O[C@H]2C(=O)O1	inactive: 1.07
CC(C)C1(NC(=O)C2CC3c4cccc5[nH]cc(c45)CC3N(C)C2)OC2(O)C3CCCN3C(=O)C(Cc3ccccc3)N2C1=O (centres undefined) [Nehydrin]	inactive: 0.86
CC(C)(O)/C=C/C(=O)[C@](C)(O)[C@H]1[C@H](O)C[C@@]2(C)[C@@H]3CC=C4[C@@H](C=C(O)C(=O)C4(C)C)[C@]3(C)C(=O)C[C@]12C [Cucurbitacin I]	inactive: 0.99
C[C@H]1CCC/C=C/[C@@H]2C[C@H](O)C[C@H]2[C@H](O)/C=C/C(=O)O1 [Brefeldin A]	inactive: 1.04
CCOC(OC1=C(C#N)CCC1)C(C)[Se]c1ccccc1 (centres undefined)	inactive: 1.04
COC1=C(C)C(=O)C2=C(C1=O)[C@@H](CO)N1[C@H]3[C@H]4[C@@H](C[C@H]([C@H]1C#N)N4C)[C@@H]1OCCN1[C@@H]23 [Cyanocycline A]	inactive: 0.463

Some values from the entries so far.
COC(=O)C1C(O)C(C)C(O)C(C)/C=C\C=C(C)C(=O)Nc2c(C)c(OC(C)=O)c3c(c2O)C(=O)C(C)=C2OCOC(=C23)C(C)=CC(C)(O)C(O)C(C)C1O (centres undefined) – Kcc2 promoter-driven luciferase activity: inactive: 0.99
COc1ccc(NC2=NCCO2)c2c1CCCC2 – Kcc2 promoter-driven luciferase activity: inactive: 0.62

The list goes on:

Compound	Kcc2 promoter-driven luciferase activity
CC1CC(C)(O)CC(C(O)CC2CC(=O)NC(=O)C2)C1=O (centres undefined) [Streptovitacin A]	inactive: 0.262
CC[C@H](C)[C@@H]1NC(=O)[C@@H](NC(=O)c2c3nc4c(C(=O)N[C@@H]5C(=O)N[C@@H](C(C)C)C(=O)N6CCC[C@H]6C(=O)N(C)CC(=O)N(C)[C@@H](C(C)C)C(=O)O[C@@H]5C)ccc(C)c4oc-3c(C)c(=O)c2N)[C@@H](C)OC(=O)[C@H](C(C)C)N(C)C(=O)CN(C)C(=O)[C@@H]2CCCN2C1=O	inactive: 1.01
CN1[C@@H]2C[C@@H](OC(=O)[C@H](CO)c3ccccc3)C[C@H]1[C@@H]1O[C@@H]12 [Scopolamine Hydrobromide]	inactive: 0.46
COc1cc2c(cc1OC)C13CCN4C=C5CCOC6CC(=O)N2C1C6C5CC43 (centres undefined) [Neobrucine]	inactive: 0.57
C[C@H]1CCC/C=C/[C@@H]2C[C@H](O)C[C@H]2[C@H](O)/C=C/C(=O)O1 [Brefeldin A; Ascotoxin]	inactive: 0.6
CC1(C)CC2=NO[Se]3=C2C(=NO3)C1	inactive: 1.06
NC1CCCCC1N.[Cl][Pt][Cl] (centres undefined) [Dichloro(1,2-diaminocyclohexane)platinum(II)]	inactive: 1.02
CC[C@@]1(O)C(=O)OCc2c1cc1n(c2=O)Cc2cc3ccccc3nc2-1 [Camptothecin]	inactive: 1
O=C1NC(=S)NC(=O)C1C(=O)Nc1ccccc1 [Merbarone]	inactive: 0.53
C[C@@H]1CC[C@H]2[C@@H](C)C(=O)O[C@@H]3O[C@@]4(C)CC[C@@H]1[C@]32OO4 [Artemisinin]	inactive: 1.17
CC(=O)O[C@H]1C[C@H](O[C@H]2[C@@H](O)C[C@H](O[C@H]3[C@@H](O)C[C@H](O[C@H]4CC[C@@]5(C)[C@H](CC[C@@H]6[C@@H]5CC[C@]5(C)[C@@H](C7=CC(=O)OC7)CC[C@]65O)C4)O[C@@H]3C)O[C@@H]2C)OC(C)[C@H]1O[C@@H]1O[C@H](CO)[C@@H](O)[C@H](O)[C@H]1O (some centres undefined) [Lanatoside A]	inactive: 1.03
CO[C@@H]1C[C@@H](C[C@H]2CC[C@H](C)[C@H]([C@@H](C)C(=O)O)O2)O[C@]2(O[C@](C)([C@H]3CC[C@@](C)([C@@H]4O[C@@H]([C@H]5O[C@@](O)(CO)[C@H](C)C[C@@H]5C)C[C@@H]4C)O3)C[C@H]2C)[C@@H]1C [Nigericin]	inactive: 0.88
COc1ccc(-c2c(C)c(C(=O)O)nc(-c3ccc4c(O)c(OC)c5c(c4n3)=NC(C)(C)N=5)c2N)c(O)c1OC [Imidazoquinoline]	inactive: 1.13
CC(=O)O[C@H]1C(=O)[C@@]2(C)[C@H]([C@H](OC(=O)c3ccccc3)[C@]3(O)C[C@H](O)C(C)=C1C3(C)C)[C@]1(OC(C)=O)CO[C@@H]1C[C@@H]2O	active: 1.35
CC(C)C[C@H]1C(=O)N2CCC[C@H]2[C@]2(O)O[C@](NC(=O)[C@@H]3C=C4c5cccc6[nH]c(Br)c(c56)C[C@H]4N(C)C3)(C(C)C)C(=O)N12	inactive: 0.75
CC(=O)O[C@@H]1[C@@H](O)C2=C3[C@]4(C)[C@@H]1C(C)(C)C(=O)C[C@@H]4[C@]3(O)[C@H](OC(C)=O)[C@@]1(C[C@@H]1C)C2=O [Photobarbatusin I]	inactive: 0.963
C/C1=C\[C@H](C)C[C@H](C)OC(=O)CC(c2ccc(O)cc2)NC(=O)[C@@H](Cc2c(Br)[nH]c3ccccc23)N(C)C(=O)[C@H](C)NC(=O)[C@@H](C)C1 (some centres undefined) [Jasplakinolide]	inactive: 0.8
CO[C@H]1[C@@H](O)[C@@H](C)O[C@H](O[C@H]2[C@H](Oc3cccc4c(O)c5c(=O)oc6ccc(C)c7c(=O)oc(c34)c5c67)O[C@H](C)[C@H](O)[C@@H]2O)[C@@H]1O [Chartreusin]	inactive: 0.73
[O-][Cl+3]([O-])([O-])[O-].c1ccc(-c2csc3c4ccccc4c4ccccc4[n+]23)cc1 [3-phenyl-[1,3]thiazolo[3,2-f]phenanthridin-4-ium;perchlorate]	inactive: 0.91
